Reference: PubChem BioAssay AID1508597 (Cure First, 2020)
Assay: 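Genes whose silencing sensitises or protects ovarian cancer cells against rucaparib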 (primary screen). System: human ovarian carcinoma lines grown from tumours: OCI-P5x (papillary serous) and OCI-C5x (clear cell). Reagent: siRNA pool against human genes, 1.25 pmol siRNA per well. Time to read-out: 72 h or 96 h, depending on the cell culture. Treatment: rucaparib 20 µM (about IC30) or vehicle, present until read-out. Rucaparib or vehicle: Rucaparib. Cell line: OCI-C5x (clear cell). Measurement: 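Luminescent ATP-based viability assay read 72 or 96 h after transfection, depending on culture, given as normalised percent viability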. Reading the numbers: viability, normalised: higher = more viable cells remaining. Rule for the call: 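Active when normalised viability falls below 80 percent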. Calls: active = viability under 80%; inactive = viability 80% or more.
Shown is an unselected part of the about 2,100 reagents, under one of the conditions tested. 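Calls flag viability under 80% in either arm, not effects specific to rucaparib; the reference for percent is not stated.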 Unmarked entries are inactive. A reagent listed more than once was tested more than once; the source does not tell the runs apart. Reagent sequences are not shown. The record does not give: the 100% reference.

gene	technical replicate	viability, normalised (%)
SMAD4 (SMAD family member 4)	1	33.6 (active)
SMAD4 (SMAD family member 4)	2	26.9 (active)
SMAD4 (SMAD family member 4)	3	40.1 (active)
MED8 (mediator complex subunit 8)	1	48.4 (active)
MED8 (mediator complex subunit 8)	2	30.7 (active)
MED8 (mediator complex subunit 8)	3	38.6 (active)
CLDN18 (claudin 18)	1	51.2 (active)
CLDN18 (claudin 18)	2	44.2 (active)
CLDN18 (claudin 18)	3	53.6 (active)
GALK2 (galactokinase 2)	1	32 (active)
GALK2 (galactokinase 2)	2	28.5 (active)
GALK2 (galactokinase 2)	3	35.1 (active)
SPHK1 (sphingosine kinase 1)	1	60.9 (active)
SPHK1 (sphingosine kinase 1)	2	49.9 (active)
SPHK1 (sphingosine kinase 1)	3	46.7 (active)
MYPOP (Myb related transcription factor, partner of profilin)	1	31.1 (active)
MYPOP (Myb related transcription factor, partner of profilin)	2	36.7 (active)
MYPOP (Myb related transcription factor, partner of profilin)	3	32.6 (active)
TAF1L (TATA-box binding protein associated factor 1 like)	1	61.1 (active)
TAF1L (TATA-box binding protein associated factor 1 like)	1	44.1 (active)
TAF1L (TATA-box binding protein associated factor 1 like)	2	40.3 (active)
TAF1L (TATA-box binding protein associated factor 1 like)	2	60 (active)
TAF1L (TATA-box binding protein associated factor 1 like)	3	51.1 (active)
TAF1L (TATA-box binding protein associated factor 1 like)	3	33.8 (active)
CD79A (CD79a molecule)	1	40.5 (active)
CD79A (CD79a molecule)	2	44.8 (active)
CD79A (CD79a molecule)	3	41.7 (active)
MUS81 (MUS81 structure-specific endonuclease subunit)	1	67.5 (active)
MUS81 (MUS81 structure-specific endonuclease subunit)	2	67.2 (active)
MUS81 (MUS81 structure-specific endonuclease subunit)	3	70.4 (active)
SGK1 (serum/glucocorticoid regulated kinase 1)	1	60.9 (active)
SGK1 (serum/glucocorticoid regulated kinase 1)	2	53.9 (active)
SGK1 (serum/glucocorticoid regulated kinase 1)	3	54.2 (active)
PDE6B (phosphodiesterase 6B)	1	53.2 (active)
PDE6B (phosphodiesterase 6B)	2	39.6 (active)
PDE6B (phosphodiesterase 6B)	3	40.1 (active)
ZSCAN21 (zinc finger and SCAN domain containing 21)	1	66.4 (active)
ZSCAN21 (zinc finger and SCAN domain containing 21)	2	64.7 (active)
ZSCAN21 (zinc finger and SCAN domain containing 21)	3	57.2 (active)
TDRD7 (tudor domain containing 7)	1	62.4 (active)
TDRD7 (tudor domain containing 7)	2	46.6 (active)
TDRD7 (tudor domain containing 7)	3	37.1 (active)
WRN (WRN RecQ like helicase)	1	84.1
WRN (WRN RecQ like helicase)	1	56.3 (active)
WRN (WRN RecQ like helicase)	2	67 (active)
WRN (WRN RecQ like helicase)	2	95.3
WRN (WRN RecQ like helicase)	3	72 (active)
WRN (WRN RecQ like helicase)	3	56.9 (active)
HDGFL1 (HDGF like 1)	1	51.4 (active)
HDGFL1 (HDGF like 1)	2	39.6 (active)
HDGFL1 (HDGF like 1)	3	49.8 (active)
STK33 (serine/threonine kinase 33)	1	61.1 (active)
STK33 (serine/threonine kinase 33)	2	65.3 (active)
STK33 (serine/threonine kinase 33)	3	54 (active)
MLH1 (mutL homolog 1)	1	60 (active)
MLH1 (mutL homolog 1)	2	48.8 (active)
MLH1 (mutL homolog 1)	3	48.2 (active)
